Results published in PubChem BioAssay AID1671190 (National Center for Advancing Translational Sciences (NCATS), 2021).
“And” between values parts separate entries of the source, which are not always exact repeats. Equal entries are not always repeated. Hit rate of the full screen: of about 580,000 compounds, about 6,100 (1.1%) were called active. This list was built around the results that the source calls inconclusive (neither active nor inactive); the mix of calls is not that of the screen. Calls follow the shape of the dose curve; as a rule, active = well fitted inhibition curve with a large enough effect; inconclusive = small, poorly fitted or top-dose-only effect, or another doubt; inactive = no such curve, though single readings can be large or run the other way. Potencies of inconclusive entries are doubtful fits and often do not repeat.

Amino acid sequences for entries named in this document (tags omitted).
UniProt P18054, whole entry, looked up: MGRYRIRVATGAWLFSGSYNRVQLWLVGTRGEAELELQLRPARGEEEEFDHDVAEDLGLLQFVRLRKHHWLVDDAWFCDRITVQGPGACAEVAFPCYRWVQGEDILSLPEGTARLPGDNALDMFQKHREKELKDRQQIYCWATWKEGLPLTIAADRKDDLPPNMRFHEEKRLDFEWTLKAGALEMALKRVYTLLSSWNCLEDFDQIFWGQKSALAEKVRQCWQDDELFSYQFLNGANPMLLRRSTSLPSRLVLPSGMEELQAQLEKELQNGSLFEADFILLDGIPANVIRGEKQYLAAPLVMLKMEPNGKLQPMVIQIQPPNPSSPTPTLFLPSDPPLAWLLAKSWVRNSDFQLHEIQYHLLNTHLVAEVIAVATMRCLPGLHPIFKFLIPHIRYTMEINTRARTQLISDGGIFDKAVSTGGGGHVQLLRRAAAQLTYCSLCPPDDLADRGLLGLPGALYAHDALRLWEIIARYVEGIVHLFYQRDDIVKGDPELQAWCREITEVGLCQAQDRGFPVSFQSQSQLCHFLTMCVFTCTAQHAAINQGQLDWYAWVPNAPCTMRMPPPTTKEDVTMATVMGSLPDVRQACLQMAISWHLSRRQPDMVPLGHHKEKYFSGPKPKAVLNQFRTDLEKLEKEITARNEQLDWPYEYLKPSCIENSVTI

What follows are molecules tested against Polyunsaturated fatty acid lipoxygenase ALOX12 (Homo sapiens) (UniProt P18054) (assay: Primary qHTS assay for inhibitors of human arachidonate 12S-lipoxygenase (ALOX12): Round 2). Conditions: purified 12hLO, xylenol orange hydroperoxide absorbance; activity change, negative = inhibition: at 108 µM (top of the series) unless noted.
In short: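 Hydroperoxide product was detected by ferrous iron/xylenol orange as the 573 to 405 nm absorbance ratio. Arachidonic acid at 40 uM (final) was turned over for 30 min at room temperature by 150 nM human 12hLO, pH 7.0 Hepes buffer, after 15 min compound preincubation.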
% is scaled to controls: 0 for no effect and ±100 for the full control effect; potency is read from the fitted curve at half-maximal effect.

| Structure (SMILES) | Potency | activity change, negative = inhibition |
| --- | --- | --- |
| COc1ccc(CN2CCN(c3nc(C)ccc3C#N)CC2CCO)cc1C (stereo not given) | inconclusive: 8.91 µM [inhibitor, full curve] | – |
| CN(CC(=O)NC(=O)NCc1ccccc1)Cc1ccccc1 | inconclusive: 35.5 µM [inhibitor, single point] | – |
| CC(=O)Nc1cccc(/C(C)=N/NC(=S)NC(C)C)c1 | inconclusive: 20 µM [inhibitor, partial curve, poor fit] | – |
| CC1CCCN(C(=O)Cn2ncc3c([nH]c4ccccc43)c2=O)C1 (stereo not given) | inconclusive: 158 µM [inhibitor, partial curve, poor fit] | – |
| CCN(C(=O)CSc1cc(C)c2ccc(OC)cc2n1)C1CCS(=O)(=O)C1 (stereo not given) | – | inactive: -23.2% |
| CCc1ccccc1Nc1sc(C(=O)c2cccc(OC)c2)c(N)c1S(=O)(=O)c1ccccc1 | – | inactive: -6.94% |
| COc1ccc(-n2c(=S)[nH]c3cc(C(=O)Nc4ccccc4OC)ccc3c2=O)c(OC)c1 | inconclusive: 35.5 µM [inhibitor, partial curve, poor fit] | – |
| C(=NCc1ccccc1)c1cn(-c2ccccc2)nc1-c1cccs1 | inconclusive: 44.7 µM [inhibitor, partial curve, poor fit] and active: 50.1 µM | – |
| COc1ccc(CNc2nc3ccccc3n2C)c(OC)c1 | – | inactive: 61.8% |
| COc1ccccc1NC(=O)CC1C(=O)NCCN1C(=O)Nc1ccc(Cl)c(Cl)c1 (stereo not given) | inconclusive: 63.1 µM [inhibitor, partial curve, poor fit] | – |
| CCCCOc1ccc(C(=O)NCc2nnnn2-c2ccc(C)c(C)c2)cc1 | – | inconclusive: -30.8% [inhibitor] |
| O=C1CSc2ccc(C(=O)Nc3ccc(Oc4ccccc4)cc3)cc2N1 | inconclusive: 6.31 µM [inhibitor, partial curve, poor fit] | – |
| COc1cccc(C(C2C(=O)CC(C)(C)CC2=O)C2C(=O)CC(C)(C)CC2=O)c1 | – | inactive: -14.8% |
| Cc1cc(Cl)cc(C)c1OCCOCCNCc1ccccc1 | inconclusive: 0.316 µM [inhibitor, full curve, poor fit] | – |
| Cc1ccc(-n2c(C)nc3c(cnn3-c3ccc(C)c(C)c3)c2=O)cc1C | inconclusive: 14.1 µM [inhibitor, partial curve, poor fit] | – |
| O=C(c1ccccc1)c1c2c(cc3sc4ccccc4[n+]13)-c1cccc3cccc-2c13 | active: 31.6 µM | – |
| COC(=O)C1=C(C(=O)OC)SC(=C(Cl)C(=S)Nc2cccc(C)c2)S1 | inconclusive: 35.5 µM [inhibitor, partial curve, poor fit] | – |
| COc1ccccc1CN1CC(CNC(=O)Nc2ccccc2)C2(C1)CN(c1ccccc1)C2 (stereo not given) | inconclusive: 50.1 µM [inhibitor, partial curve, poor fit] | – |
| O=C(/C=C/c1ccco1)NC(=S)Nc1ccc(O)c(-c2nc3ccccc3s2)c1 | inconclusive: 50.1 µM [inhibitor, partial curve, poor fit] | – |
| COc1ccc(-c2csc(-c3ccc(O)cc3)n2)cc1 | – | inactive: -16.6% |
| CN1C(=O)/C(=C\c2ccco2)N=C1c1ccc(Cl)cc1Cl | – | inactive: -19.3% |
| Cn1nnc2c(N3CCN(c4ccc(F)cc4)CC3)ncnc21 | inconclusive: 112 µM [inhibitor, partial curve, poor fit] | – |

| Structure (SMILES) | Potency | activity change, negative = inhibition |
| --- | --- | --- |
| Cn1cccc1/C=C(\C#N)c1ccc(Br)cc1 | inconclusive: 44.7 µM [inhibitor, partial curve, poor fit] | – |
| Cc1cc(C)n2c(Br)c(CSc3nc4ccccc4o3)nc2n1 | inconclusive: 28.2 µM [inhibitor, single point] | – |
| CCCn1c(SCC(=O)Nc2ccc(Cl)cc2)nc(O)cc1=O | inconclusive: 6.31 µM [inhibitor, full curve] | – |
| O=C(OCCOc1ccc(Cl)cc1)c1ccccc1C(=O)c1ccc(Cl)cc1 | inconclusive: 56.2 µM [inhibitor, partial curve, poor fit] | – |
| CC(C)c1ccc(-n2nnnc2SCCCn2c(=O)c3c(ncn3C)n(C)c2=O)cc1 | inconclusive: 0.251 µM [inhibitor, full curve, poor fit] | – |
| COc1cc(OC)cc(C(=O)/C(=C\c2ccco2)c2nc3ccccc3o2)c1 | active: 39.8 µM | – |
| COc1ccc(C2=CSC3=C(C(=O)c4cccc(S(=O)(=O)N(C)C)c4)CCN23)cc1 | inconclusive: 3.55 µM [inhibitor, full curve, poor fit] | – |
| CC(C)Cn1cnc2c1c(=O)n(CC(=O)Nc1ccc3c(c1)OCO3)c(=O)n2Cc1ccccc1 | inactive | – |
| CCOC(=O)c1c(NC=C(C#N)C#N)sc(C)c1CC | inconclusive: 100 µM [inhibitor, single point] | – |
| CC(=O)c1ccc(OCC(O)CN2CCN(c3ccccn3)CC2)cc1 (stereo not given) | inconclusive: 25.1 µM [inhibitor, partial curve] | – |
| CNC(=S)N/N=C(\C)c1cccc(C(F)(F)F)c1 | active: 22.4 µM | – |
| COc1ccc(S(=O)(=O)Nc2cc(N3CCCS3(=O)=O)ccc2C)cc1OC | inconclusive: 50.1 µM [inhibitor, partial curve, poor fit] | – |
| CCOC(=O)C1CCCN(Cc2ccc(OC)cc2OC)C1 (stereo not given) | inconclusive: 2.51 µM [inhibitor, full curve, poor fit] | – |
| O=C(O)CCNC(=O)/C(=C/c1ccco1)NC(=O)c1ccco1 | – | inactive: -11.9% |
| O=C(CC1(O)C(=O)Nc2ccccc21)c1cccc(Br)c1 (stereo not given) | inconclusive: 126 µM [inhibitor, partial curve, poor fit] | – |
| Cc1ccc(-c2c(C)sc(NC(=O)CC3(CC(=O)O)CCCC3)c2C(N)=O)cc1C | inconclusive: 44.7 µM [inhibitor, partial curve, poor fit] | – |
| Cc1cc(S(=O)(=O)N(C)CCc2ccccc2)ccc1-n1cnnn1 | inconclusive: 112 µM [inhibitor, single point] | – |
| CC1CS(=O)(=O)CCN1N=Cc1ccc([N+](=O)[O-])o1 (stereo not given) | inconclusive: 44.7 µM [inhibitor, partial curve, poor fit] | – |
| Cc1c(CN2CCCCC2)c(O)n(CCCO)c(=O)c1C#N | inconclusive: 35.5 µM [inhibitor, single point] | – |
| COc1cccc(CN2CCC(n3nccc3NC(=O)CCCc3ccccc3)CC2)c1O | inconclusive: 79.4 µM [inhibitor, partial curve, poor fit] | – |
| COc1cc(C(C)=O)ccc1OC(=O)c1cc2cccc(OC)c2oc1=O | – | inactive: -28% |
| Cc1ccc(C2=C/C(=C/c3cccs3)C(=O)O2)cc1 | inconclusive: 39.8 µM [inhibitor, partial curve, poor fit] | – |

| Structure (SMILES) | Potency | activity change, negative = inhibition |
| --- | --- | --- |
| CC1CCC(N2CCN(c3ncccn3)CC2)C1 (stereo not given) | inconclusive: 31.6 µM [inhibitor, partial curve, poor fit] | – |
| Cn1nc(C(=O)Nc2nc3c(s2)CCC3)c2ccccc2c1=O | inconclusive: 39.8 µM [inhibitor, partial curve] | – |
| Cc1ccc(Nc2c(O)nc[nH]c2=O)cc1 | inconclusive: 35.5 µM [inhibitor, partial curve, poor fit] | – |
| CCOC(=O)C1CCN(C(c2ccccn2)c2c(C)[nH]c3ccccc23)CC1 (stereo not given) | inconclusive: 126 µM [inhibitor, single point] | – |
| CCCc1cc(=O)oc2cc(OCc3nn[nH]n3)ccc12 | inconclusive: 22.4 µM [inhibitor, partial curve, poor fit] | – |
| CCOc1ccc(Oc2ccccc2NC(=O)Cc2nc(-c3ccccc3)oc2C)cc1 | inconclusive: 44.7 µM [inhibitor, partial curve, poor fit] | – |
| CN1CCN(c2cc(-c3cccc(C(=O)O)c3)nc3ccnn23)CC1 | inconclusive: 28.2 µM [inhibitor, partial curve, poor fit] | – |
| Cc1cc(OC(C)C(=O)N(Cc2ccc(N(C)C)cc2)Cc2ccco2)ccc1Cl (stereo not given) | – | inactive: 0% |
| Nc1ccccc1Nc1ccccc1 | inconclusive: 39.8 µM [inhibitor, partial curve, poor fit] | – |
| CC1CCCN(CCCNC(=O)c2ccc3c(c2)N(Cc2ccc(Cl)cc2)C(=O)c2ccccc2S3(=O)=O)C1 (stereo not given) | inconclusive: 158 µM [inhibitor, single point] | – |
| CCCN1CNC(=S)N(c2ccccc2C)C1 | – | inactive: -14.3% |
| Oc1ccc(Cl)cc1C=NCc1ccc(C(F)(F)F)cc1 | inconclusive: 50.1 µM [inhibitor, partial curve, poor fit] | – |
| Cc1ccc(C)c(NC(=O)Cn2cc(S(=O)(=O)Cc3cccc(Cl)c3)c3ccccc32)c1 | inconclusive: 56.2 µM [inhibitor, partial curve, poor fit] | – |
| Cc1ccc(C)c(C(=O)COc2ccccc2[N+](=O)[O-])c1 | – | inactive: 0.754% |
| COc1cccc(C2N(Cc3ccccc3)C(=O)C2(F)F)c1OC (stereo not given) | – | inactive: -3.55% |
| O=c1cc(CSc2ccc(Cl)cc2)nc2nc[nH]n12 | – | inactive: -33.9% |
| COC(=O)c1ccc(Nc2cc(C)nc3ncnn23)cc1 | inconclusive: 28.2 µM [inhibitor, partial curve, poor fit] | – |
| Cc1ccc(Nc2nc(Nc3ccc(F)cc3)nc3nccnc23)cc1Cl | inconclusive: 50.1 µM [inhibitor, single point] | – |
| CCOC(=O)C1CCCN(C(=O)c2cccc(S(=O)(=O)N(C)c3ccc(OC)cc3)c2)C1 (stereo not given) | – | inactive: 8.2% |
| O=C(COC(=O)c1cccc(NS(=O)(=O)c2ccc(F)c(F)c2)c1)NC(=O)NC1CCCC1 | inconclusive: 17.8 µM [inhibitor, partial curve] | – |
| CCNC(=S)N/N=C(/C)c1cc(Cl)ccc1Cl | inconclusive: 56.2 µM [inhibitor, partial curve, poor fit] | – |

Whole records, looked up by structure.
`CC1CCCN(CCCNC(=O)c2ccc3c(c2)N(Cc2ccc(Cl)cc2)C(=O)c2ccccc2S3(=O)=O)C1` (stereo not given) is listed with Potency: inconclusive: 158 µM [inhibitor, single point]
`Nc1ccccc1Nc1ccccc1` is listed with Potency: inconclusive: 39.8 µM [inhibitor, partial curve, poor fit]

Exported bar-delimited: part of the list above.
Structure (SMILES) | Potency | activity change, negative = inhibition
O=c1cc(CSc2ccc(Cl)cc2)nc2nc[nH]n12 | – | inactive: -33.9%
COC(=O)c1ccc(Nc2cc(C)nc3ncnn23)cc1 | inconclusive: 28.2 µM [inhibitor, partial curve, poor fit] | –
